# Measurements as given in the supplement of paper PMC12819154, “High-throughput peptide-centric local stability assay extends protein–ligand identification to membrane proteins, tissues and bacteria” (Nature Structural & Molecular Biology, 2025).
# The chains behind the UniProt entries cited, without tags or fusion partners. Where a name states a change or a piece, a line headed by the entry shows the natural chain unless it says otherwise.
# UniProt P36649: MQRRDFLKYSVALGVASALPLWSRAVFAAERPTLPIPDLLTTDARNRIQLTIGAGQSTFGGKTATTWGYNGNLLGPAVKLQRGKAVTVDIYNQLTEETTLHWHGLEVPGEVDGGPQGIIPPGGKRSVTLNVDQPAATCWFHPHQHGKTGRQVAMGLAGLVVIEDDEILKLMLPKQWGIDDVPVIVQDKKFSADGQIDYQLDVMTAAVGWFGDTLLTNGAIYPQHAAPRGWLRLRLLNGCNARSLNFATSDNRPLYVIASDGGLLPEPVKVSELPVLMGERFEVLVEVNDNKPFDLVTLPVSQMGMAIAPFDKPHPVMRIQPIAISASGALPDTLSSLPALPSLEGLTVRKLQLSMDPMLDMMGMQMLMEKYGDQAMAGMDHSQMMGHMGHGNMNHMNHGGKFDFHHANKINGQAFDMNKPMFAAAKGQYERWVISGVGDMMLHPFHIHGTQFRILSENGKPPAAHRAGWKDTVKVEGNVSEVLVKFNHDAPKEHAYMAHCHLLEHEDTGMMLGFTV
# UniProt P39384: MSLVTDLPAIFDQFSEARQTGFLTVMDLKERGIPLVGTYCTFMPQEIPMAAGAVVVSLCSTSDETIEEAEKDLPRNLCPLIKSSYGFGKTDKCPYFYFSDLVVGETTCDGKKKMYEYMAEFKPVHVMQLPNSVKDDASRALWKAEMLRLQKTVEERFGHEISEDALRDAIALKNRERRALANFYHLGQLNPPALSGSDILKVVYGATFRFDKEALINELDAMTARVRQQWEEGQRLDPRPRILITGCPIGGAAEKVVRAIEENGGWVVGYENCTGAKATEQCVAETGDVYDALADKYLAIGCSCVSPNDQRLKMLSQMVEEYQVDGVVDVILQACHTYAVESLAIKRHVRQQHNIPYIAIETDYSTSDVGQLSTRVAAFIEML
# UniProt P39160: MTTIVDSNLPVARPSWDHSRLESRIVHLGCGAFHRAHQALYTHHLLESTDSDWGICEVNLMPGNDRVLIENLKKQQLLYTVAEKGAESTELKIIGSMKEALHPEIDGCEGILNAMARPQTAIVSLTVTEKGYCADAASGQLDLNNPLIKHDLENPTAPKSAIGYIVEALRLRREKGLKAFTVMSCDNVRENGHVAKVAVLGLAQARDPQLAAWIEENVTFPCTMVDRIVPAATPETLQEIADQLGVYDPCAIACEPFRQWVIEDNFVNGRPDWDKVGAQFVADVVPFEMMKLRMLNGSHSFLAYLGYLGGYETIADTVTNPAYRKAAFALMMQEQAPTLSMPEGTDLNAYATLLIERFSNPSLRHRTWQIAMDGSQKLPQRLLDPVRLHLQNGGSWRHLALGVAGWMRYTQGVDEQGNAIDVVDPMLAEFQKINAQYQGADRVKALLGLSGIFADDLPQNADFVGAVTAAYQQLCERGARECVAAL
# UniProt P37349: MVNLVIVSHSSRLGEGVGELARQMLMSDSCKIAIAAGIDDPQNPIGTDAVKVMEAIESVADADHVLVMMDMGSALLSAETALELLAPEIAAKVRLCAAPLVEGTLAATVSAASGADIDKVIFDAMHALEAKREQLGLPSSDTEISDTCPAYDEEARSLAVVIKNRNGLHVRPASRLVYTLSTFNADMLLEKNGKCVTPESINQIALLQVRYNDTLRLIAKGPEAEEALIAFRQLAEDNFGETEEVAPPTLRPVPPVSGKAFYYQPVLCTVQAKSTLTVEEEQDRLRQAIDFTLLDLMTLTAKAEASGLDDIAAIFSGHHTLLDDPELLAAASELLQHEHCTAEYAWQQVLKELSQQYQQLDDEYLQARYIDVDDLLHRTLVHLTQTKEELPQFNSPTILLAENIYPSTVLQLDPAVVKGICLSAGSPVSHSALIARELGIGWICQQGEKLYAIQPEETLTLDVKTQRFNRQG
# UniProt P39366: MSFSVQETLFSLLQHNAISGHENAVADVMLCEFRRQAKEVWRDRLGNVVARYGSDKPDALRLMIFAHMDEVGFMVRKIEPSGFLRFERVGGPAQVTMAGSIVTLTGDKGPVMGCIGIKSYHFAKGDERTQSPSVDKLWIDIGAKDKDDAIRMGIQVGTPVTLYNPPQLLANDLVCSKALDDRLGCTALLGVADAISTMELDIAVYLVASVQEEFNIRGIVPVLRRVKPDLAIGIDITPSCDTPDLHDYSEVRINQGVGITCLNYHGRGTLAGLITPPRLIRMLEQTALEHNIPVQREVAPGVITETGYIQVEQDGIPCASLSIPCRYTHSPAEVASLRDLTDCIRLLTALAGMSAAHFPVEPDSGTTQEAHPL
# UniProt P38134: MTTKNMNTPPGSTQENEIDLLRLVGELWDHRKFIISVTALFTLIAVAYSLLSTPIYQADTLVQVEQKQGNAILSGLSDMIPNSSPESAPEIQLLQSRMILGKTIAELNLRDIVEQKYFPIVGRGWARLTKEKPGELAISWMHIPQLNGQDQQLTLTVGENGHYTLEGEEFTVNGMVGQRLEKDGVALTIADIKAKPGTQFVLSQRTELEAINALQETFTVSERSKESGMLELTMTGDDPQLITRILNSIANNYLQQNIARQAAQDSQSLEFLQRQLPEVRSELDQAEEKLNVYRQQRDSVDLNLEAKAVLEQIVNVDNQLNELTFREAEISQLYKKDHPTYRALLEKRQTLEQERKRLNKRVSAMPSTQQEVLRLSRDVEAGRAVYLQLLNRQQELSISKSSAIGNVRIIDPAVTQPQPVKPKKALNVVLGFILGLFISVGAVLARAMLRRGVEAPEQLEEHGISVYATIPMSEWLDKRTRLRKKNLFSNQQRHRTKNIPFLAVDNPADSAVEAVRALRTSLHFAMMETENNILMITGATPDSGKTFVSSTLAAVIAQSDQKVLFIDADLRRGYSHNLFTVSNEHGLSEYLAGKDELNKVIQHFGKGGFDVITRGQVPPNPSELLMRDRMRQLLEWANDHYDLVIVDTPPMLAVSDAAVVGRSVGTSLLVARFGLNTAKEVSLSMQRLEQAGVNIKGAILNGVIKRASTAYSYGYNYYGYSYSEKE
# UniProt P37627: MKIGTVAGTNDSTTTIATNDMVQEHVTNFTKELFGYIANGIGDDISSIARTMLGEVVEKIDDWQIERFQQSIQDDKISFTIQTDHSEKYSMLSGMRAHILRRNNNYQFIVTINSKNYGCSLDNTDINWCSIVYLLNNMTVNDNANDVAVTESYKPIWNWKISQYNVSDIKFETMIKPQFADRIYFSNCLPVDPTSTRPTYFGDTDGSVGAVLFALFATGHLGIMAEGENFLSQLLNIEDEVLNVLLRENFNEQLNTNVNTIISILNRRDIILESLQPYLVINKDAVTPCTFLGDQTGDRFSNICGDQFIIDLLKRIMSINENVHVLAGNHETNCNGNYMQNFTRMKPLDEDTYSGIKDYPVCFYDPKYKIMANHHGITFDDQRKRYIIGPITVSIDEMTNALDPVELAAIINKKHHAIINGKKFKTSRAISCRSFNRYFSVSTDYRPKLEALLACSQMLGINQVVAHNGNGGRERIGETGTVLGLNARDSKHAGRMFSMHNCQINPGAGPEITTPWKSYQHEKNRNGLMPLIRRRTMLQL
# UniProt P38104: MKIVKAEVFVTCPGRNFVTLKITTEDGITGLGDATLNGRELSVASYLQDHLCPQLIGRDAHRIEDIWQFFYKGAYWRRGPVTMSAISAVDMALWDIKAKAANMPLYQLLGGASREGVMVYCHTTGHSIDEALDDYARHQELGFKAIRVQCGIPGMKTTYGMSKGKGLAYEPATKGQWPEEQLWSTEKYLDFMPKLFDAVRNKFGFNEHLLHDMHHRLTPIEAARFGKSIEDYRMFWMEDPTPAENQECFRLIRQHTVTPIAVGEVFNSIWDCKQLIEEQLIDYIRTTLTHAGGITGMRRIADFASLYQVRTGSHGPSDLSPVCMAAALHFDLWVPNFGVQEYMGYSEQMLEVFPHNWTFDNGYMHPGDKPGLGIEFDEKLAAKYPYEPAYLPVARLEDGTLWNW
# UniProt P37634: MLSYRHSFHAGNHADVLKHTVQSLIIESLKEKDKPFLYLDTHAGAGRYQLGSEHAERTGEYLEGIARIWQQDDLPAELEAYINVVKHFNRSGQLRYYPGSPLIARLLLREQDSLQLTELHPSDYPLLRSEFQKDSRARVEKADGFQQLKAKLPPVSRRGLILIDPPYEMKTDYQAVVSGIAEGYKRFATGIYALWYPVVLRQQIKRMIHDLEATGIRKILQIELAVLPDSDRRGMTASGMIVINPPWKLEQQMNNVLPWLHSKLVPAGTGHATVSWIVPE
# UniProt P39199: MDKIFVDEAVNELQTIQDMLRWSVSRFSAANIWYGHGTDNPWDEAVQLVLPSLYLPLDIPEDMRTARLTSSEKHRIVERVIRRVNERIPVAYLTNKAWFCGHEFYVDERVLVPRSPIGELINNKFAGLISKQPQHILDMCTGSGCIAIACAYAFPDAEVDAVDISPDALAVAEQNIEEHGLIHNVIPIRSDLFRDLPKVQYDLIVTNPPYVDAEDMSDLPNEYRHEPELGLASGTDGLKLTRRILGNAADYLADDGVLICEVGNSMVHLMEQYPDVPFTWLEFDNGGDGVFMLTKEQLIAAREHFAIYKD
# UniProt P37671: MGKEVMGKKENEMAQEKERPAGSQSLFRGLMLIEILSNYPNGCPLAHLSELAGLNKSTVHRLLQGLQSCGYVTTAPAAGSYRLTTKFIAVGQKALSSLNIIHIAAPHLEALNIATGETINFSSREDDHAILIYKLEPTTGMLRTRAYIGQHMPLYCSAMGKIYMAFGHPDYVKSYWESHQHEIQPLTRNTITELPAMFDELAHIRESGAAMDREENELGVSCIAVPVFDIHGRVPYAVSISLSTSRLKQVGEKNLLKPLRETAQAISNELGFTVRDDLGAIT
# UniProt P40711: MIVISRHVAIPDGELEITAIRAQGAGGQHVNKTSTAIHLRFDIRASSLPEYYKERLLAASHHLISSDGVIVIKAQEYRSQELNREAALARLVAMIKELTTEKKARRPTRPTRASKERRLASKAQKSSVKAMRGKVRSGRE
# UniProt P37325: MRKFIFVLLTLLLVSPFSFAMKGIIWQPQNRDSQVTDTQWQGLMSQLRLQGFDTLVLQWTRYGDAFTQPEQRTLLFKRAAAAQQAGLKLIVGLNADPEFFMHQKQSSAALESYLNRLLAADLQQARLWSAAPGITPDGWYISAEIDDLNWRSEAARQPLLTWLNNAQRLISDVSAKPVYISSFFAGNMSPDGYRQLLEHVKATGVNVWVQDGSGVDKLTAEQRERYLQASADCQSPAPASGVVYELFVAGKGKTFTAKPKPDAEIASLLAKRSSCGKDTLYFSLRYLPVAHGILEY
# UniProt P39333: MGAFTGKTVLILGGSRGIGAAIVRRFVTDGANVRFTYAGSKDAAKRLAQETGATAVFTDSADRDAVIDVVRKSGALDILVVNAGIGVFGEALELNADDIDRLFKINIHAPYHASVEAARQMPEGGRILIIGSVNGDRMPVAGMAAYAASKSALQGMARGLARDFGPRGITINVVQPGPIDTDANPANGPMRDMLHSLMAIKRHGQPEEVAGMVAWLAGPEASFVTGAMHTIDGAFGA
# UniProt P45799: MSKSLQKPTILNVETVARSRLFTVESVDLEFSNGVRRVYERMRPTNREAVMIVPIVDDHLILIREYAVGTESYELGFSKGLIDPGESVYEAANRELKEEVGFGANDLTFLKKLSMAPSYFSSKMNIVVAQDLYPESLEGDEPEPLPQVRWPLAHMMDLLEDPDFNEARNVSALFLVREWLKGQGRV
# UniProt P42590: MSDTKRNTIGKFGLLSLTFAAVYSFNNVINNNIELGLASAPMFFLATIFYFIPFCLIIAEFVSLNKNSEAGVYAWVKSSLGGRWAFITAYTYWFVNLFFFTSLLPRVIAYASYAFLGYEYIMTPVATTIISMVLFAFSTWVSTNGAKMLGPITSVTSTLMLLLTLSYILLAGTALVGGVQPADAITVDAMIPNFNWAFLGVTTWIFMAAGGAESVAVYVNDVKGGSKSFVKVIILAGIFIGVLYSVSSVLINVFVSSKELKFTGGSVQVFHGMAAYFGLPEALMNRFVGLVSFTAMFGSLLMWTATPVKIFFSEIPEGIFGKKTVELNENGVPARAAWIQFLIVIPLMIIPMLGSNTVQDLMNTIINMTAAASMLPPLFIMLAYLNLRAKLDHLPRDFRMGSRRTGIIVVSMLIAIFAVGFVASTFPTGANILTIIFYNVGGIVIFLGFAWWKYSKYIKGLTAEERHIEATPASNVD
# UniProt P45463: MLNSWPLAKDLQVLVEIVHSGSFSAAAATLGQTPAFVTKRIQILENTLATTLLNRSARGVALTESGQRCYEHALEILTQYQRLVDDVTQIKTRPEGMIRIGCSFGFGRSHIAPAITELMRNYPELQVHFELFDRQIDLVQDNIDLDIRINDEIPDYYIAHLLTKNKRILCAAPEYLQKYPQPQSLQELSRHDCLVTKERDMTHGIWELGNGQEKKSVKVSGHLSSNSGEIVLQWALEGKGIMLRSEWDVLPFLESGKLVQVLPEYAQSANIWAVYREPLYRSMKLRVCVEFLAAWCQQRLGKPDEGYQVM
# The list shows a part of the results. Most values lie at the level of the controls, where differences are scatter.
# Compound: CC1(C)S[C@@H]2[C@H](NC(=O)[C@H](N)c3ccccc3)C(=O)N2[C@H]1C(=O)O [ampicillin]
# Experiment: log2 fold change of tryptic peptide abundance, ligand vs vehicle (limited proteolysis) (log2 ratio); higher = more trypsin-susceptible (destabilized)
# Details: ligand concentration: 10 uM; sample: E. coli crude lysate
row,Target,log2 fold change
1,"UniProt P36649 (peptide sequence: FDFHHANK, peptide start residue: 402)",0.0396
2,"UniProt P38051 (peptide sequence: QAQQLGEWLMADDKNQR, peptide start residue: 267)",0.316
3,"UniProt P37387 (peptide sequence: VAISGQDADLAGIKR, peptide start residue: 239)",-0.63
4,"UniProt P39384 (peptide sequence: RALANFYHLGQLNPPALSGSDILK, peptide start residue: 178)",0.248
5,"UniProt P39160 (peptide sequence: IVHLGCGAFHR, peptide start residue: 25)",-0.624
6,"UniProt P37349 (peptide sequence: YIDVDDLLHR, peptide start residue: 369)",0.148
7,"UniProt P39366 (peptide sequence: MLEQTALEHNIPVQR, peptide start residue: 282)",-0.367
8,"UniProt P45522 (peptide sequence: GRVEAHELLQAGVTQFSR, peptide start residue: 500)",-0.513
9,"UniProt P38134 (peptide sequence: TIAELNLR, peptide start residue: 103)",0.16
10,"UniProt P37627 (peptide sequence: FQQSIQDDKISFTIQTDHSEK, peptide start residue: 68)",-0.215
11,"UniProt P38104 (peptide sequence: LAAKYPYEPAYLPVAR, peptide start residue: 380)",0.262
12,"UniProt P37634 (peptide sequence: EKDKPFLYLDTHAGAGR, peptide start residue: 31)",0.415
13,"UniProt P39199 (peptide sequence: SPIGELINNK, peptide start residue: 115)",-0.177
14,"UniProt P37691 (peptide sequence: AHNSGHEVLIHLPMAPLSK, peptide start residue: 68)",0.0735
15,"UniProt P37759 (peptide sequence: ALGWKPQETFESGIRK, peptide start residue: 314)",-0.195
16,"UniProt P37671 (peptide sequence: KENEMAQEK, peptide start residue: 9)",0.307
17,"UniProt P40711 (peptide sequence: ASSLPEYYKER, peptide start residue: 45)",0.24
18,"UniProt P39396 (peptide sequence: DIGEPSVLNR, peptide start residue: 453)",-0.0507
19,"UniProt P37679 (peptide sequence: NHQLGIYEK, peptide start residue: 3)",-0.426
20,"UniProt P37325 (peptide sequence: AAAAQQAGLK, peptide start residue: 79)",-0.755
21,"UniProt P39353 (peptide sequence: NGWENKQER, peptide start residue: 149)",-0.227
22,"UniProt P39333 (peptide sequence: MPVAGMAAYAASK, peptide start residue: 138)",0.242
23,"UniProt P45799 (peptide sequence: KLSMAPSYFSSK, peptide start residue: 112)",0.326
24,"UniProt P42590 (peptide sequence: HIEATPASNVD, peptide start residue: 467)",0.0407
25,"UniProt P45463 (peptide sequence: CYEHALEILTQYQR, peptide start residue: 69)",0.462

# Another view of part of the listing above:
row | Target | log2 fold change
21 | UniProt P39353 (peptide sequence: NGWENKQER, peptide start residue: 149) | -0.227
22 | UniProt P39333 (peptide sequence: MPVAGMAAYAASK, peptide start residue: 138) | 0.242
